Measurements reported in article PMC5513536.

Amino acid sequences for entries named in this document (tags omitted).
UniProt F5HID2: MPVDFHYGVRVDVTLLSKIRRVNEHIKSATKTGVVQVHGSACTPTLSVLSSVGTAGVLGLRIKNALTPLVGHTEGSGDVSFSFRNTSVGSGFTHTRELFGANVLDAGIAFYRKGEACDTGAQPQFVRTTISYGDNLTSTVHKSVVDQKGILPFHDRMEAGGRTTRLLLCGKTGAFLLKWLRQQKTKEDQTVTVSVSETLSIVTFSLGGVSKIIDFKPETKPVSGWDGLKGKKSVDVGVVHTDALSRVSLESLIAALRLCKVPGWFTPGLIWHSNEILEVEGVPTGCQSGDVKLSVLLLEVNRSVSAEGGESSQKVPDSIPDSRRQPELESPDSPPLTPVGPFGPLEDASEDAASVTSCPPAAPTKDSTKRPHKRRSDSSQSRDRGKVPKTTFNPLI

B1: pre-rRNA processing protein FTSJ3 (protein, UniProt Q8IY81 1-847)
chain: MGKKGKVGKSRRDKFYHLAKETGYRSRSAFKLIQLNRRFQFLQKARALLDLCAAPGGWLQVAAKFMPVSSLIVGVDLVPIKPLPNVVTLQQDITTERCRQALRKELKTWKVDVVLNDGAPNVGASWVHDAYSQAHLTLMALRLACDFLARGGSFITKVFRSRDYQPLLWIFQQLFRRVQATKPQASRHESAEIFVVCQGFLAPDKVDSKFFDPKFAFKEVEVQAKTVTELVTKKKPKAEGYAEGDLTLYHRTSVTDFLRAANPVDFLSKASEIMVDDEELAQHPATTEDIRVCCQDIRVLGRKELRSLLNWRTKLRRYVAKKLKEQAKALDISLSSGEEDEGDEEDSTAGTTKQPSKEEEEEEEEEQLNQTLAEMKAQEVAELKRKKKKLLREQRKQRERVELKMDLPGVSIADEGETGMFSLSTIRGHQLLEEVTQGDMSAADTFLSDLPRDDIYVSDVEDDGDDTSLDSDLDPEELAGVRGHQGLRDQKRMRLTEVQDDKEEEEEENPLLVPLEEKAVLQEEQANLWFSKGSFAGIEDDADEALEISQAQLLFENRRKGRQQQQKQQLPQTPPSCLKTEIMSPLYQDEAPKGTEASSGTEAATGLEGEEKDGISDSDSSTSSEEEESWEPLRGKKRSRGPKSDDDGFEIVPIEDPAKHRILDPEGLALGAVIASSKKAKRDLIDNSFNRYTFNEDEGELPEWFVQEEKQHRIRQLPVGKKEVEHYRKRWREINARPIKKVAEAKARKKRRMLKRLEQTRKKAEAVVNTVDISEREKVAQLRSLYKKAGLGKEKRHVTYVVAKKGVGRKVRRPAGVRGHFKVVDSRMKKDQRAQQRKEQKKKHKRK
B2: EF-hand domain-containing protein D2 (protein, UniProt Q96C19 1-240)
chain: MATDELATKLSRRLQMEGEGGGETPEQPGLNGAAAAAAGAPDEAAEALGSADCELSAKLLRRADLNQGIGEPQSPSRRVFNPYTEFKEFSRKQIKDMEKMFKQYDAGRDGFIDLMELKLMMEKLGAPQTHLGLKNMIKEVDEDFDSKLSFREFLLIFRKAAAGELQEDSGLCVLARLSEIDVSSEGVKGAKSFFEAKVQAINVSSRFEEEIKAEQEERKKQAEEMKQRKAAFKELQSTFK
B3: Apoptotic chromatin dondensation inducer in the nucleus (protein, UniProt Q9UKV3 1-1341)
chain: MWRRKHPRTSGGTRGVLSGNRGVEYGSGRGHLGTFEGRWRKLPKMPEAVGTDPSTSRKMAELEEVTLDGKPLQALRVTDLKAALEQRGLAKSGQKSALVKRLKGALMLENLQKHSTPHAAFQPNSQIGEEMSQNSFIKQYLEKQQELLRQRLEREAREAAELEEASAESEDEMIHPEGVASLLPPDFQSSLERPELELSRHSPRKSSSISEEKGDSDDEKPRKGERRSSRVRQARAAKLSEGSQPAEEEEDQETPSRNLRVRADRNLKTEEEEEEEEEEEEDDEEEEGDDEGQKSREAPILKEFKEEGEEIPRVKPEEMMDERPKTRSQEQEVLERGGRFTRSQEEARKSHLARQQQEKEMKTTSPLEEEEREIKSSQGLKEKSKSPSPPRLTEDRKKASLVALPEQTASEEETPPPLLTKEASSPPPHPQLHSEEEIEPMEGPAPAVLIQLSPPNTDADTRELLVSQHTVQLVGGLSPLSSPSDTKAESPAEKVPEESVLPLVQKSTLADYSAQKDLEPESDRSAQPLPLKIEELALAKGITEECLKQPSLEQKEGRRASHTLLPSHRLKQSADSSSSRSSSSSSSSSRSRSRSPDSSGSRSHSPLRSKQRDVAQARTHANPRGRPKMGSRSTSESRSRSRSRSRSASSNSRKSLSPGVSRDSSTSYTETKDPSSGQEVATPPVPQLQVCEPKERTSTSSSSVQARRLSQPESAEKHVTQRLQPERGSPKKCEAEEAEPPAATQPQTSETQTSHLPESERIHHTVEEKEEVTMDTSENRPENDVPEPPMPIADQVSNDDRPEGSVEDEEKKESSLPKSFKRKISVVSATKGVPAGNSDTEGGQPGRKRRWGASTATTQKKPSISITTESLKSLIPDIKPLAGQEAVVDLHADDSRISEDETERNGDDGTHDKGLKICRTVTQVVPAEGQENGQREEEEEEKEPEAEPPVPPQVSVEVALPPPAEHEVKKVTLGDTLTRRSISQQKSGVSITIDDPVRTAQVPSPPRGKISNIVHISNLVRPFTLGQLKELLGRTGTLVEEAFWIDKIKSHCFVTYSTVEEAVATRTALHGVKWPQSNPKFLCADYAEQDELDYHRGLLVDRPSETKTEEQGIPRPLHPPPPPPVQPPQHPRAEQREQERAVREQWAEREREMERRERTRSEREWDRDKVREGPRSRSRSRDRRRKERAKSKEKKSEKKEKAQEEPPAKLLDDLFRKTKAAPCIYWLPLTDSQIVQKEAERAERAKEREKRRKEQEEEEQKEREKEAERERNRQLEREKRREHSRERDRERERERERDRGDRDRDRERDRERGRERDRRDTKRHSRSRSRSTPVRDRGGRR
B4: Isoform 3 of General transcription factor II-I (protein, UniProt P78347-3 1-978)
chain: MAQVAMSTLPVEDEESSESRMVVTFLMSALESMCKELAKSKAEVACIAVYETDVFVVGTERGRAFVNTRKDFQKDFVKYCVEEEEKAAEMHKMKSTTQANRMSVDAVEIETLRKTVEDYFCFCYGKALGKSTVVPVPYEKMLRDQSAVVVQGLPEGVAFKHPENYDLATLKWILENKAGISFIIKRPFLEPKKHVGGRVMVTDADRSILSPGGSCGPIKVKTEPTEDSGISLEMAAVTVKEESEDPDYYQYNIQGSHHSSEGNEGTEMEVPAEDSTQHVPSETSEDPEVEVTIEDDDYSPPSKRPKANELPQPPVPEPANAGKRKVREFNFEKWNARITDLRKQVEELFERKYAQAIKAKGPVTIPYPLFQSHVEDLYVEGLPEGIPFRRPSTYGIPRLERILLAKERIRFVIKKHELLNSTREDLQLDKPASGVKEEWYARITKLRKMVDQLFCKKFAEALGSTEAKAVPYQKFEAHPNDLYVEGLPENIPFRSPSWYGIPRLEKIIQVGNRIKFVIKRPELLTHSTTEVTQPRTNTPVKEDWNVRITKLRKQVEEIFNLKFAQALGLTEAVKVPYPVFESNPEFLYVEGLPEGIPFRSPTWFGIPRLERIVRGSNKIKFVVKKPELVISYLPPGMASKINTKALQSPKRPRSPGSNSKVPEIEVTVEGPNNNNPQTSAVRTPTQTNGSNVPFKPRGREFSFEAWNAKITDLKQKVENLFNEKCGEALGLKQAVKVPFALFESFPEDFYVEGLPEGVPFRRPSTFGIPRLEKILRNKAKIKFIIKKPEMFETAIKESTSSKSPPRKINSSPNVNTTASGVEDLNIIQVTIPDDDNERLSKVEKARQLREQVNDLFSRKFGEAIGMGFPVKVPYRKITINPGCVVVDGMPPGVSFKAPSYLEISSMRRILDSAEFIKFTVIRPFPGLVINNQLVDQSESEGPVIQESAEPSQLEVPATEEIKETDGSSQIKQEPDPTW
B5: 14-3-3 protein theta (protein, UniProt P27348 1-245)
chain: MEKTELIQKAKLAEQAERYDDMATCMKAVTEQGAELSNEERNLLSVAYKNVVGGRRSAWRVISSIEQKTDTSDKKLQLIKDYREKVESELRSICTTVLELLDKYLIANATNPESKVFYLKMKGDYFRYLAEVACGDDRKQTIDNSQGAYQEAFDISKKEMQPTHPIRLGLALNFSVFYYEILNNPELACTLAKTAFDEAIAELDTLNEDSYKDSTLIMQLLRDNLTLWTSDSAGEECDAAEGAEN
B6: Isoform 5 of Double-stranded RNA-specific adensodine deaminase (protein, UniProt P55265-5 1-931)
chain: MAEIKEKICDYLFNVSDSSALNLAKNIGLTKARDINAVLIDMERQGDVYRQGTTPPIWHLTDKKRERMQIKRNTNSVPETAPAAIPETKRNAEFLTCNIPTSNASNNMVTTEKVENGQEPVIKLENRQEARPEPARLKPPVHYNGPSKAGYVDFENGQWATDDIPDDLNSIRAAPGEFRAIMEMPSFYSHGLPRCSPYKKLTECQLKNPISGLLEYAQFASQTCEFNMIEQSGPPHEPRFKFQVVINGREFPPAEAGSKKVAKQDAAMKAMTILLEEAKAKDSGKSEESSHYSTEKESEKTAESQTPTPSATSFFSGKSPVTTLLECMHKLGNSCEFRLLSKEGPAHEPKFQYCVAVGAQTFPSVSAPSKKVAKQMAAEEAMKALHGEATNSMASDNQPEGMISESLDNLESMMPNKVRKIGELVRYLNTNPVGGLLEYARSHGFAAEFKLVDQSGPPHEPKFVYQAKVGGRWFPAVCAHSKKQGKQEAADAALRVLIGENEKAERMGFTEVTPVTGASLRRTMLLLSRSPEAQPKTLPLTGSTFHDQIAMLSHRCFNTLTNSFQPSLLGRKILAAIIMKKDSEDMGVVVSLGTGNRCVKGDSLSLKGETVNDCHAEIISRRGFIRFLYSELMKYNSQTAKDSIFEPAKGGEKLQIKKTVSFHLYISTAPCGDGALFDKSCSDRAMESTESRHYPVFENPKQGKLRTKVENGEGTIPVESSDIVPTWDGIRLGERLRTMSCSDKILRWNVLGLQGALLTHFLQPIYLKSVTLGYLFSQGHLTRAICCRVTRDGSAFEDGLRHPFIVNHPKVGRVSIYDSKRQSGKTKETSVNWCLADGYDLEILDGTRGTVDGPRNELSRVSKKNIFLLFKKLCSFRYRRDLLRLSYGEAKKAARDYETAKNYFKKGLKDMGYGNWISKPQEEKNFYLCPV
B7: Transformer-2 protein homolog (protein, UniProt P62995 1-288)
chain: MSDSGEQNYGERESRSASRSGSAHGSGKSARHTPARSRSKEDSRRSRSKSRSRSESRSRSRRSSRRHYTRSRSRSRSHRRSRSRSYSRDYRRRHSHSHSPMSTRRRHVGNRANPDPNCCLGVFGLSLYTTERDLREVFSKYGPIADVSIVYDQQSRRSRGFAFVYFENVDDAKEAKERANGMELDGRRIRVDFSITKRPHTPTPGIYMGRPTYGSSRRRDYYDRGYDRGYDDRDYYSRSYRGGGGGGGGWRAAQDRDQIYRRRSPSPYYSRGGYRSRSRSRSYSPRRY

These binders were tested against Flag-epitope tagged ORF59 (BAC16-ORF59Flag) (KSHV (human herpesvirus 8)) (UniProt F5HID2) (assay: affinity purification with mass spectrometry).

Binder | binding
B1 | binds
B2 | binds
B3 | binds
B4 | binds
B5 | binds
B6 | binds
B7 | binds

Results are given in words; binding and its absence hold for the method and conditions named. In cells and extracts the contact can be indirect. A yes stands for co-enrichment or nearness to the bait. Other partners may have been found.
